Data published in publication doi:10.1101/2022.04.05.487156.
Results are given in words; binding and its absence hold for the method and conditions named. Binding seen in cells or lysates may run through a third protein. Some entries that bind do so weakly or less than the wild type. Sequences can lack the tags named with a protein.

Target: T1, Flag-CARP2 (human) (UniProt Q8WZ73)
T1 sequence: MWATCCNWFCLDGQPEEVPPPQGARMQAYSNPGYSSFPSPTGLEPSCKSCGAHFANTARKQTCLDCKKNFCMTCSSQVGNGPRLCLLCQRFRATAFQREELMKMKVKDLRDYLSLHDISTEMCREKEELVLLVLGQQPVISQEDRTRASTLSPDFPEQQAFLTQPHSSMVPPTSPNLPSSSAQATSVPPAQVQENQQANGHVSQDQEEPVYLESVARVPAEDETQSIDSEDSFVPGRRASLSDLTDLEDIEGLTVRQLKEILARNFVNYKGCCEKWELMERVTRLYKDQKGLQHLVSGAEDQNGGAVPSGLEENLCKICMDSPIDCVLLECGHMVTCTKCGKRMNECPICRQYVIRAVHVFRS
Assay: co-IP

B1: Golgin45-V5-6Xhis (protein, UniProt Q9H2G9 1-400)
chain: MTTKNLETKVTVTSSPIRGAGDGMETEEPPKSVEVTSGVQSRKHHSLQSPWKKAVPSESPGVLQLGKMLTEKAMEVKAVRILVPKAAITHDIPNKNTKVKSLGHHKGEFLGQSEGVIEPNKELSEVKNVLEKLKNSERRLLQDKEGLSNQLRVQTEVNRELKKLLVASVGDDLQYHFERLAREKNQLILENEALGRNTAQLSEQLERMSIQCDVWRSKFLASRVMADELTNSRAALQRQNRDAHGAIQDLLSEREQFRQEMIATQKLLEELLVSLQWGREQTYSPSVQPHSTAELALTNHKLAKAVNSHLLGNVGINNQKKIPSTVEFCSTPAEKMAETVLRILDPVTCKESSPDNPFFESSPTTLLATKKNIGRFHPYTRYENITFNCCNHCRGELIAL
- binding: binds
